No constants are given. Whether binding was seen depends on the method and setting. Binding seen in cells or lysates may run through a third protein. A yes stands for co-enrichment or nearness to the bait. Other partners may have been found.
target: Septin 7 (horse (endogenous in equine PBL)) (UniProt F6UVF8); assay: affinity purification with mass spectrometry; immunoprecipitation of endogenous septin 7 (rat anti-septin 7 clone 19A4 on Protein G Sepharose) from PBL lysate of a healthy horse; TBS (50 mM Tris, 150 mM NaCl), 2% CHAPS; overnight at 4 °C; label-free LC-MS/MS; enrichment factor ≥18 against isotype control

| Substance | binding |
| --- | --- |
| Cell division cycle 42 (from UniProt F6SXQ9) | binds |
| Dedicator of cytokinesis 8 (from UniProt F6RU57) | binds |
| Myosin IG (from UniProt F7AMC4) | binds |
| Tropomodulin 3 (ubiquitous) (from UniProt F6PZY1) | binds |
| Vimentin (from UniProt F7B5C4) | binds |

The next lines start with the values.

| binding | Substance |
| --- | --- |
| binds | Actinin, alpha 1 (from UniProt F7DZI2) |
| binds | Flotillin 2 (from UniProt F6QQL7) |

target: Dedicator of cytokinesis 8 (horse (endogenous in equine PBL)) (UniProt F6RU57); assay: affinity purification with mass spectrometry; immunoprecipitation of endogenous DOCK8 (rabbit polyclonal H-159 on Protein G Sepharose) from PBL lysates of three healthy and three ERU horses; TBS, 2% CHAPS; overnight at 4 °C; label-free LC-MS/MS; ≥2 peptide counts, enrichment factor ≥4

| Substance | binding |
| --- | --- |
| CORO1C (from UniProt A0A3Q2IEP2 1-480) | binds |
| GSN (from UniProt Q28372 1-731) | binds |
| Septin 7 (from UniProt F6UVF8) | binds |

Now from value to substance:

| binding | Substance |
| --- | --- |
| binds | Actinin, alpha 1 (from UniProt F7DZI2) |
| binds | FERMT3 (from UniProt A0A5F5PTW4 1-663) |
| binds | FN1 (from UniProt Q28377 32-2477) |
